Test results published in publication PMC7445300.
No constants are given. Whether binding was seen depends on the method and setting. In cells and extracts the contact can be indirect. Some results given as binding are weak or reduced against the parent protein; the word gives no strength.

The chains behind the UniProt entries cited, without tags or fusion partners.
UniProt P26358: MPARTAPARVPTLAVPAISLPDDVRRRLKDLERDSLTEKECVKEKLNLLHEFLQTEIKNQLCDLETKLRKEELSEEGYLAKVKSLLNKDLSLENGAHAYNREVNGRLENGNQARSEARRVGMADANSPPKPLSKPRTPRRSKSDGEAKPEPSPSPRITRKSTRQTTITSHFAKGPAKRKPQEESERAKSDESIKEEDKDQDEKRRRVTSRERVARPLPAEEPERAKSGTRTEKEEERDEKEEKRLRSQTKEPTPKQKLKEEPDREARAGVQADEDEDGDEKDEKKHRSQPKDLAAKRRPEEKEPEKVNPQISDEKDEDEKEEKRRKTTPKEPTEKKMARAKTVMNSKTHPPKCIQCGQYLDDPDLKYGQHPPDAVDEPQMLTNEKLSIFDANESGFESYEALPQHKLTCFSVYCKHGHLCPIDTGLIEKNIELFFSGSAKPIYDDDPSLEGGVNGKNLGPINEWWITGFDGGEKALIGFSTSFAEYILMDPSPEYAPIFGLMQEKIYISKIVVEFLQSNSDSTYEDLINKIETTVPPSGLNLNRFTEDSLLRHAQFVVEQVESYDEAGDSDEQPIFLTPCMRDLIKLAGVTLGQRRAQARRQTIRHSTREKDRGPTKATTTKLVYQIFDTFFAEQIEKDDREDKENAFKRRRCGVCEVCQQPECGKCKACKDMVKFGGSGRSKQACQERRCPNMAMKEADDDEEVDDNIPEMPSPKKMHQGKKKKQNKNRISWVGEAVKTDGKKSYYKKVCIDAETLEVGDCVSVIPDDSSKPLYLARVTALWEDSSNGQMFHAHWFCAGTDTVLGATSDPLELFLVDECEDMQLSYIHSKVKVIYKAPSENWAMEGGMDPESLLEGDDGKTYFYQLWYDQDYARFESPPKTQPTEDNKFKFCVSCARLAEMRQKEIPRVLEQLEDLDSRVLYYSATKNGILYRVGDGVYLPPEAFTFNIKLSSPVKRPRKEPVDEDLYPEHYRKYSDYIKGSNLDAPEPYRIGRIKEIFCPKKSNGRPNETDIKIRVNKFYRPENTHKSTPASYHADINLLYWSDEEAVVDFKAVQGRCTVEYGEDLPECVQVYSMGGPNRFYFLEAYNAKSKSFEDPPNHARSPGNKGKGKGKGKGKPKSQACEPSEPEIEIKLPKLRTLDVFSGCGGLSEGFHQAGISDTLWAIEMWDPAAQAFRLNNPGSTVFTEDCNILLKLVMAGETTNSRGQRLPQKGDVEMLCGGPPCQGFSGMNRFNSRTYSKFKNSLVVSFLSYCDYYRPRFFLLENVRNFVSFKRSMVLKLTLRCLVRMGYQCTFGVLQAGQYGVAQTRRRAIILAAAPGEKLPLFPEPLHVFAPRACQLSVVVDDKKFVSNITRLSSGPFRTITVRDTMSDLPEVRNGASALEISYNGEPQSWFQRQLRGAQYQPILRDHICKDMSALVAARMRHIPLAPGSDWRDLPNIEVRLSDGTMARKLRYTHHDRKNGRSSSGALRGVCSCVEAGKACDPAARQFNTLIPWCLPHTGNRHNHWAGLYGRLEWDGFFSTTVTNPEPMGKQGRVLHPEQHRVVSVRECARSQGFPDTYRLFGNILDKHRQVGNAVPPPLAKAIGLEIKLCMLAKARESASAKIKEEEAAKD
UniProt Q93009: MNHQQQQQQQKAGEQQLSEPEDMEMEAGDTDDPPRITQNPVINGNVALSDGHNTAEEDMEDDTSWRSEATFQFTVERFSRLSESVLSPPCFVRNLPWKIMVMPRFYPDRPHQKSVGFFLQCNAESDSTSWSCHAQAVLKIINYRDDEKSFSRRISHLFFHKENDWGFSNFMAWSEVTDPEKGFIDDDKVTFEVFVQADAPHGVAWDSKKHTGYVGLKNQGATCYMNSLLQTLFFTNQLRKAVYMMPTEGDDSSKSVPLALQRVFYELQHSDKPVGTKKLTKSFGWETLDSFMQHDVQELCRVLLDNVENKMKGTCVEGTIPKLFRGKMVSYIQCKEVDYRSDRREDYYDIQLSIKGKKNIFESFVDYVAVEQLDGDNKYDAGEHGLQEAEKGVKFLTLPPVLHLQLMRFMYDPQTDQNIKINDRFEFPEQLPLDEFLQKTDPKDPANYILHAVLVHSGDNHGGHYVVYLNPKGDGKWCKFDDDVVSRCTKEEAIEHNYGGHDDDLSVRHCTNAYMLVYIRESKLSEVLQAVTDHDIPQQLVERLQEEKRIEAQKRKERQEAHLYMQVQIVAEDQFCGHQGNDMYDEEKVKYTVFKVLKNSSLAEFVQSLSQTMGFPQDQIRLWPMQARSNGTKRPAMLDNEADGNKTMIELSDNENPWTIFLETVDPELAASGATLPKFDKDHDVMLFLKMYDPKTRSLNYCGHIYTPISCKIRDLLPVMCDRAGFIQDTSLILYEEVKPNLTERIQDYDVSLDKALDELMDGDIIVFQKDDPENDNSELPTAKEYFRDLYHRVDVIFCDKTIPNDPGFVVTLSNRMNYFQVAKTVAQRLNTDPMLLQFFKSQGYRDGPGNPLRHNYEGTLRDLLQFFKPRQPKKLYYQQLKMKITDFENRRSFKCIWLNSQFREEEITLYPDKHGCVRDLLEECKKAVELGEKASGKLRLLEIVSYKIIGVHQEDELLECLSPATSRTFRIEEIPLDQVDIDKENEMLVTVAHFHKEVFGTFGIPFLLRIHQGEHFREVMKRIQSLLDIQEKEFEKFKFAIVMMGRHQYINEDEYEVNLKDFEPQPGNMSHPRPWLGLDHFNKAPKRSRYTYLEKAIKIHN

Legend:
DNMT1 = DNMT1 (UniProt P26358); assay: co-IP; plasmids co-transfected into HEK293T cells for 48 h; lysis in 25 mM Tris-HCl pH 8.0, 150 mM NaCl, 1% NP-40, 2 mM EDTA, 1 mM DTT; anti-FLAG M2-affinity beads 3 h at 4 °C; WB
UHRF1 = target: T1, UHRF1 (UniProt Q96T88); assay: as above
T1 sequence: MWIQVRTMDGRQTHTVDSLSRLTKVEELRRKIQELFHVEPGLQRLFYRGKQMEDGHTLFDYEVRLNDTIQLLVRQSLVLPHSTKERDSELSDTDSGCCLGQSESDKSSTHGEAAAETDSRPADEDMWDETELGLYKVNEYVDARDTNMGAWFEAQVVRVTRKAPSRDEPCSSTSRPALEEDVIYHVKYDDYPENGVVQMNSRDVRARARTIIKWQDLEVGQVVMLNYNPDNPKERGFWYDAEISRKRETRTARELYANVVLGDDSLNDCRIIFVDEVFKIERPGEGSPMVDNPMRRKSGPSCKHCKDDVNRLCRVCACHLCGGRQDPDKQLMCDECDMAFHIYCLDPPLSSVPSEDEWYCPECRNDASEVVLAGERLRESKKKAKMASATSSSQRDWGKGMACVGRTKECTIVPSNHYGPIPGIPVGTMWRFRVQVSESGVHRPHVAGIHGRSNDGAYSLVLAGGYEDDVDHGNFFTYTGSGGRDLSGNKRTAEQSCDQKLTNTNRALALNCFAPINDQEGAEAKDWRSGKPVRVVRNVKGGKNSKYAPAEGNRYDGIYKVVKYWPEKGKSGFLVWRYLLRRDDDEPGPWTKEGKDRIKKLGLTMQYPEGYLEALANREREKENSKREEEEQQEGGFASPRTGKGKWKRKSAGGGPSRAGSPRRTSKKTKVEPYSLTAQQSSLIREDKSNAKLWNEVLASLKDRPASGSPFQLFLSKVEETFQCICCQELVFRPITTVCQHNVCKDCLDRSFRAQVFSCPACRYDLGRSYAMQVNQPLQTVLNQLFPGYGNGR

binding (DNMT1): binds
binding (UHRF1): binds weakly
Substance: USP7 (ubiquitin specific protease 7) (from UniProt Q93009 1-1102) (enzyme)
